Publication PMC5466756

Amino acid sequences for entries named in this document (tags omitted). Residues count along the entry.
UniProt P28799, residues 18-593: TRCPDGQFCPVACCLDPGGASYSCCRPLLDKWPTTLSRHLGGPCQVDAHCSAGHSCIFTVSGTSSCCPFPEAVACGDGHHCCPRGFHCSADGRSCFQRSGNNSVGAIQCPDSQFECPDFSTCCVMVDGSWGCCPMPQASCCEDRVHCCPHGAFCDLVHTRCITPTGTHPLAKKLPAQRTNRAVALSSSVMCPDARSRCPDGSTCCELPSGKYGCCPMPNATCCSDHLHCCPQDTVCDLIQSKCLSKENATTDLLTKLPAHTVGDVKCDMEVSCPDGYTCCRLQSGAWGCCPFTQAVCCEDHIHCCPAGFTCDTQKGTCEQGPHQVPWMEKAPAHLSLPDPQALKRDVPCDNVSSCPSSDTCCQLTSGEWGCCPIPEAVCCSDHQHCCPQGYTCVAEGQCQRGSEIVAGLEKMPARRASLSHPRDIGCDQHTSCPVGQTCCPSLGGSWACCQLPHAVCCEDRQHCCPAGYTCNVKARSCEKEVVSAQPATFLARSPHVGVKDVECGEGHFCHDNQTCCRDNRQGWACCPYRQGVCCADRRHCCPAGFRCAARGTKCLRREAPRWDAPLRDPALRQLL
UniProt P11021, residues 19-654: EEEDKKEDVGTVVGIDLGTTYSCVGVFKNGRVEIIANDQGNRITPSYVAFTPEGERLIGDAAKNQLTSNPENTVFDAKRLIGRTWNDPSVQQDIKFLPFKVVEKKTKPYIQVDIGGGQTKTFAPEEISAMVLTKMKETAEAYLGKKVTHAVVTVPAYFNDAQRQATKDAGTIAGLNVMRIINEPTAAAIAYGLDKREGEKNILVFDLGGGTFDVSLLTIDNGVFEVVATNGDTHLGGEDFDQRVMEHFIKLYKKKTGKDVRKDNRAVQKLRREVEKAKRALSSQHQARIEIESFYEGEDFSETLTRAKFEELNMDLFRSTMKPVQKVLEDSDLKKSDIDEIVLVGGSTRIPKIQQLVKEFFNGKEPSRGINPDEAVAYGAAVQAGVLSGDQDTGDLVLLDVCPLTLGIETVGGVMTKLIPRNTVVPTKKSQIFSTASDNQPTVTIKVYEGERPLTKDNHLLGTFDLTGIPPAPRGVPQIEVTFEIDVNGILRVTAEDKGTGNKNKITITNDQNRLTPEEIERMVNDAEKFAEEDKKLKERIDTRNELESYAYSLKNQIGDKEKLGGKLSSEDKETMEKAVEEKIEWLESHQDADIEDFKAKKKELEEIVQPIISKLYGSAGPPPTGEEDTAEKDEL

Target: Granulin-epithelin precursor (human) (UniProt P28799)
Assay: affinity purification with mass spectrometry; lysate of the membrane fraction of Hep3B-FL (1% Triton X-100 lysis buffer) incubated with monoclonal anti-GEP antibody A23 overnight at 4 °C, protein G-Sepharose; the single extra Coomassie band (about 85 kDa) excised and identified by MALDI-TOF/TOF MS; controls lysate alone and antibody alone

binding: binds
Substance: 78-kDa glucose-regulated protein (from UniProt P11021 19-654)

No constants are given. Whether binding was seen depends on the method and setting. In cells and extracts the contact can be indirect. Here binding means that the protein was enriched with, or labelled near, the bait; the list need not be complete.
